# Primary screen of a compound library

The values are deposited in ChEMBL (CHEMBL3988442, “University of Dundee, Small-Polar-MMV Screening Library” (2021)).

T. brucei: 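Whole-parasite assay of Trypanosoma brucei over 72 hours; the read-out is not stated. Compounds at 30 µM. Higher reads as stronger inhibition (inferred: compounds with an IC50 in retests scored well above the rest). Values scatter widely below zero; nearly all retest evidence comes from the higher of the two concentrations used. About 64,000 compounds were tested under these conditions; 1.5% (about 940) showed 50% or more at least once.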
Toxoplasma: 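Assay of Toxoplasma gondii numbers, read through their beta-galactosidase reporter with a colour substrate. Tested at 10 µM. Higher reads as fewer parasites (inferred from which compounds were picked for retests). Size under these conditions: about 67,000 compounds, about 260 of them at 50% or above in at least one test.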

Results are given as percent effect.
How 0% and 100% were set is not recorded. Most values in the screen are low, and negative values occur.
This is an unselected part of the compounds tested.

{"compound": "COc1ccc(-c2nc(C3(NC(=O)OC(C)(C)C)CCC3)no2)cn1", "T. brucei": -20.31, "Toxoplasma": -6.843}
{"compound": "CCOc1ccc(Cl)c(C(=O)N2CCN(CCO)CC2)n1", "T. brucei": -18.92, "Toxoplasma": 3.706}
{"compound": "CCc1nnc(C2Cc3ccccc3CN2Cc2nc(C3CC3)no2)o1", "stereo": "stereo not drawn", "T. brucei": -2.291, "Toxoplasma": -8.222}
{"compound": "O=C(Nc1ccc(F)cc1)C1CNCCN1C(=O)CCc1cccnc1", "stereo": "stereo not drawn", "T. brucei": -18.26, "Toxoplasma": -18.95}
{"compound": "CC(C)c1n[nH]c(C2CN(C(=O)c3cn4ccccc4n3)CCO2)n1", "stereo": "stereo not drawn", "T. brucei": -15.13, "Toxoplasma": -29.59}
{"compound": "O=C(O)[C@@H]1CN(Cc2cnc(C3CCCCC3)nc2)C[C@H]1C1CC1", "T. brucei": -23.03, "Toxoplasma": -2.256}
{"compound": "CS(=O)(=O)Cc1ccc(NC(=O)c2cccnc2)cc1F", "T. brucei": -18.53, "Toxoplasma": -10.05}
{"compound": "COCC(=O)N1CCCC1(C(=O)N(C)C)c1cnccn1", "stereo": "stereo not drawn", "T. brucei": 1.384, "Toxoplasma": 6.35}
{"compound": "Cc1nc(C)n(CC2CCCN(c3ccnc(-c4ccccc4)n3)C2)n1", "stereo": "stereo not drawn", "T. brucei": -18.47, "Toxoplasma": -15.67}
{"compound": "COC(=O)CCNC(=O)c1ccc(OCc2ccccc2)nc1", "T. brucei": -34.53, "Toxoplasma": 0.5895}
{"compound": "O=C(NCc1ccccn1)C1CN(c2nc3ccccc3s2)CCN1", "stereo": "stereo not drawn", "T. brucei": 10.18, "Toxoplasma": -4.933}
{"compound": "Cn1cnnc1C1CCCN(C(=O)NCCOc2ccccc2)C1", "stereo": "stereo not drawn", "T. brucei": -96.05, "Toxoplasma": 1.359}
{"compound": "CC(=O)N1CCC2(CC1)COCCN2CCN(C)C.O=C(O)C(F)(F)F.O=C(O)C(F)(F)F", "T. brucei": 11.27, "Toxoplasma": 1.816}
{"compound": "O=C(CCNS(=O)(=O)c1ccc(F)cc1)NCc1ccoc1", "T. brucei": -14.03, "Toxoplasma": 8.837}
{"compound": "CC1CCC(NCCCN2CCOCC2)CC1", "stereo": "stereo not drawn", "T. brucei": 0.953, "Toxoplasma": -4.154}
{"compound": "Cc1nc(C)n(CC2CCCN2Cc2nc(-c3ccoc3)no2)n1", "stereo": "stereo not drawn", "T. brucei": 12.18, "Toxoplasma": -34.81}
{"compound": "O=C(c1[nH]nc(C2CC2)c1Cl)N1CCN(C2CC2)C(=O)C1", "T. brucei": -23, "Toxoplasma": 14.65}
{"compound": "CCC(Nc1cccc(OC)c1)C(=O)NCc1nc(C)cc(=O)[nH]1", "stereo": "stereo not drawn", "T. brucei": -32.92, "Toxoplasma": -8.968}
{"compound": "COCC1CN(C(=O)c2cccn2C)Cc2cnn(C)c21", "stereo": "stereo not drawn", "T. brucei": -28.37, "Toxoplasma": -4.966}
{"compound": "CCOc1cccc(CNC(=O)CN2CCC3(CCOC3)C2)c1", "stereo": "stereo not drawn", "T. brucei": -26.65, "Toxoplasma": -7.21}
{"compound": "Cc1noc(C)c1-c1cncc(C2CCCN2Cc2c[nH]cn2)n1", "stereo": "stereo not drawn", "T. brucei": 18.58, "Toxoplasma": -15.11}
{"compound": "Cc1ccccc1C(C)NC(=O)CN1CCN(Cc2ccc(Cl)s2)CC1", "stereo": "stereo not drawn", "T. brucei": -56.06, "Toxoplasma": 17.69}
{"compound": "CN1CCC(c2cc(C(F)(F)F)n3ccnc3n2)CC1", "T. brucei": -41.37, "Toxoplasma": -7.785}
{"compound": "CN(C)C(=O)c1ccc(C2CCCN2C(=O)CCC2=NNC(=O)CC2)s1", "stereo": "stereo not drawn", "T. brucei": -6.64, "Toxoplasma": 2.145}
{"compound": "COc1ccc(CNC(Cn2cncn2)c2ccccc2)cc1O", "stereo": "stereo not drawn", "T. brucei": -17.01, "Toxoplasma": 13.86}
{"compound": "CCn1ccnc1CN1CCN(CC(=O)NC(C)(C#N)C2CC2)CC1", "stereo": "stereo not drawn", "T. brucei": -24.34, "Toxoplasma": -4.658}
{"compound": "CC(CNC(=O)c1cccc(-n2cccn2)n1)Cn1ccnc1", "stereo": "stereo not drawn", "T. brucei": -25.44, "Toxoplasma": 13.05}
{"compound": "O=C(CCc1nc(-c2cccnc2)no1)NCC1CCN(C2CC2)C1", "stereo": "stereo not drawn", "T. brucei": -22.5, "Toxoplasma": 6.655}